PubChem BioAssay AID686943 – Drosophila RNAi Screening Center – 2013
The screen tested about 23,000 reagents; this is a random part of those that have a named target and a result. 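Extra replicates exist only for a retested subset of genes; insulin dose and duration not given; both raised and lowered dpERK matter.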 Reagents against one gene are numbered here. Further read-outs or replicates are left out here. Not given: the amount of reagent, the time to read-out.

- Purpose: 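Search across the genome for regulators of signalling from receptor tyrosine kinase to ERK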 (primary screen)
- Cell system: Drosophila S2R+ haemocyte-like cells expressing YFP-tagged ERK (Rolled)
- Knock-down reagent: long dsRNA against Drosophila genes
- Challenge: insulin stimulation versus unstimulated cells; dose and duration not given
- Read-out: 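Antibody staining for doubly phosphorylated ERK divided by ERK-YFP signal, as plate z-scores, in insulin-treated and untreated cells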
- Direction: replicate 1, z-score of dpERK with insulin and replicate 2, z-score of dpERK with insulin: higher = more active ERK per ERK-YFP after insulin; replicate 1, z-score of dpERK under basal conditions: higher = more basal active ERK per ERK-YFP

| target | reagent | replicate 1, z-score of dpERK with insulin | replicate 2, z-score of dpERK with insulin | replicate 1, z-score of dpERK under basal conditions |
| --- | --- | --- | --- | --- |
| Osi23 | 1 | 0.19 | 0.07 | -0.52 |
| be | 1 | -0.03 | 0.41 | -0.52 |
| be | 2 | 1.44 | 0.63 | -0.43 |
| be | 3 | 1.65 | 0.96 | -0.1 |
| wisp | 1 | 0.66 | 0.9 | 0.3 |
| Rpn6 | 1 | -2.77 | -2.93 | -2.91 |
| Hr51 | 1 | -0.09 | -0.31 | 1.35 |
| Hr51 | 2 | 0.82 | 0.4 | 1.52 |
| alpha-Est4aPsi | 1 | 0.3 | 0.8 | 0.17 |
| CG5445 | 1 | -0.64 | -0.62 | 0.78 |
| CG11927 | 1 | -1.02 | -0.38 | -0.06 |
| pdgy | 1 | -0.14 | 1.16 | 2.02 |
| pdgy | 2 | -0.09 | -0.16 | -0.01 |
| ovo | 1 | 0.46 | 0.17 | -0.53 |
| ovo | 2 | 0.9 | 0.34 | 0.21 |
| CstF64 | 1 | 2.09 | 0.09 | 1.21 |
| meru | 1 | 0.48 | -0.38 | 0.29 |
| meru | 2 | 0.51 | 1.45 | 0.03 |
| meru | 3 | 0.1 | -0.94 | 0.23 |
| CG14417 | 1 | 0.05 | -0.02 | -0.2 |
| Mdh2 | 1 | -0.23 | 0 | 0.11 |
| snRNP-U1-C | 1 | 0.33 | 2.65 | 7.26 |
| CG5569 | 1 | 0.29 | 1.57 | -1.03 |
| Gga | 1 | 0.27 | 0.54 | 0.32 |
| osk | 1 | 0.4 | 0.59 | -0.16 |
| baf | 1 | 0.44 | 1.25 | 0.75 |
| Atg16 | 1 | -0.98 | -1.01 | -0.54 |
| Atg16 | 2 | 0.08 | 1.26 | 0.01 |
| Atg16 | 3 | 0.6 | -0.03 | 0.26 |
| lig | 1 | 0.6 | 0.93 | -0.5 |
| lig | 2 | -1.85 | -3.33 | -0.05 |
| bma | 1 | 0.02 | 0.07 | 1.44 |
| bma | 2 | -0.17 | 0.44 | 1.63 |
| su(sable) | 1 | -0.67 | 1.02 | -1.64 |
| Sik3 | 1 | 0.1 | 0.45 | -0.03 |
| Sik3 | 2 | -0.72 | 0.08 | -0.49 |
| Ero1L | 1 | 0.75 | 0.14 | 0.02 |
| Sras | 1 | 0.84 | 0.07 | 0.28 |
| Ing5 | 1 | -2.91 | -2.22 | -1.65 |

Looked up above:
Under “replicate 2, z-score of dpERK with insulin”, Osi23 reads 0.07
Entry for Ing5 in “replicate 1, z-score of dpERK with insulin”: -2.91
